Experimental data as given in article PMC7532997, “Cytotoxic Constituents of the Bark of Hypericum roeperianum towards Multidrug-Resistant Cancer Cells” (Evidence-based Complementary and Alternative Medicine : eCAM, 2020).

How the values were obtained:
Test in all cases: Resazurin reduction assay (RRA), 72 h
Format in all cases: cell-based
[1] = tested on: HCT116 (p53-/-) colon cancer cells; conditions: IC50 HCT116 (p53-/-) divided by IC50 HCT116 (p53+/+)
Description: (§1) Cell lines used in this work included drug-sensitive and drug-resistant phenotypes of earlier reported origin. They were all provided by Prof. Dr. Thomas Efferth from his cell lines collection; they have being used in cytotoxicity screening by our team for a decade. These include two hematological cancer cell lines, namely, the drug-sensitive CCRF-CEM leukemia cell line and its multidrug-resistant P-gp-over-expressing subline CEM/ADR5000 cells and […] carcinoma cell lines, namely, U87.MG glioblastoma cell line and its EGFR-transfected U87.MGΔEGFR subline, HCT116 (p53^+/+) colon cancer cell line and its knockout clone HCT116 (p53^−/^−), and MDA-MB-231-pcDNA3 breast cancer cell line and its BCRP-transfected multidrug-resistant MDA-MB-231-BCRP clone 23 cell line, as well as the normal AML12 hepatocytes, used to compare with HepG2 liver cancer cells.
(§2) The RRA was applied to evaluate the cytotoxicity of botanicals, the isolated phytochemicals (1–5, 7, and 8), and doxorubicin on the cell growth as reported earlier. Cells treated with various samples at different concentrations were incubated for 72 h in humidified 5% CO2 atmosphere at 37°C. Cells were further coloured with resazurin and incubated for 1–2 h; the fluorescence was further measured with an Infinite M2000 Pro™ plate reader (Tecan, Crailsheim, Germany) at 544 nm as the excitation wavelength and 590 nm as the emission wavelength. The IC50 values represented the concentrations of the sample required to inhibit 50% of cell proliferation and were calculated from a calibration curve by linear regression using Microsoft Excel 2007 [29].

[2] = tested on: MDA-MB-231-BCRP breast cancer cells; conditions: IC50 MDA-MB-231-BCRP divided by IC50 MDA-MB-231-pcDNA
Description: as §1, §2

[3] = tested on: U87MG.ΔEGFR glioblastoma cells; conditions: IC50 U87MG.ΔEGFR divided by IC50 U87MG
Description: as §1, §2

SMILES | Degree of resistance [1] | Degree of resistance [2] | Degree of resistance [3]
C[C@H]1C(=O)CC[C@@H]2[C@]1(C)CC[C@H]1[C@@]2(C)CC[C@@]2(C(=O)O)C3CC(C)(C)CC[C@]3(C)CC[C@]12C (stereo partly shown) [Compound 1, trichadonic acid] | 2.55 | 0.91 | 0.91
COc1cccc2c(=O)c3cc(O)ccc3oc12 [Compound 3, 2-hydroxy-5-methoxyxanthone] | >3.54 | 0.77 | 0.60
O=c1c2cc(O)c(O)cc2oc2cc(O)cc(O)c12 [Compound 4, 1,3,6,7-tetrahydroxyxanthone] |  | <0.13 | 0.29
O=c1c2ccc(O)c(O)c2oc2cc(O)cc(O)c12 [Compound 5, 1,3,5,6-tetrahydroxyxanthone] | 1.49 | 0.84 | 0.96
COc1cc(C2Oc3ccc4c(=O)c5c(O)cc(O)cc5oc4c3OC2CO)cc(OC)c1O (stereo not shown) [Compound 7, 3′-hydroxymethyl-2′-(4″-hydroxy-3″,5″-dimethoxyphenyl)-5′,6′:5,6-(6,8-dihydroxyxanthone)-1′,4′-dioxane] |  | 1.07 | 0.43
COc1cc(C2Oc3ccc4c(=O)c5ccccc5oc4c3OC2CO)cc(OC)c1O (stereo not shown) [Compound 8, 3′-hydroxymethyl-2′-(4″-hydroxy-3″,5″-dimethoxyphenyl)-5′,6′:5,6-(xanthone)-1′,4′-dioxane] | >2.26 | 0.83 | 0.86
COc1cccc2c1C(=O)c1c(O)c3c(c(O)c1C2=O)C[C@@](O)(C(=O)CO)C[C@@H]3O[C@H]1C[C@H](N)[C@H](O)[C@H](C)O1 [Doxorubicin, reference compound] | 3.73 | 6.14 | 3.79
